The values below come from PMC3973991.

By UniProt entry, the sequences of proteins in these tests, tags left out. Residues count along the entry.
UniProt Q63373, residues 47-468: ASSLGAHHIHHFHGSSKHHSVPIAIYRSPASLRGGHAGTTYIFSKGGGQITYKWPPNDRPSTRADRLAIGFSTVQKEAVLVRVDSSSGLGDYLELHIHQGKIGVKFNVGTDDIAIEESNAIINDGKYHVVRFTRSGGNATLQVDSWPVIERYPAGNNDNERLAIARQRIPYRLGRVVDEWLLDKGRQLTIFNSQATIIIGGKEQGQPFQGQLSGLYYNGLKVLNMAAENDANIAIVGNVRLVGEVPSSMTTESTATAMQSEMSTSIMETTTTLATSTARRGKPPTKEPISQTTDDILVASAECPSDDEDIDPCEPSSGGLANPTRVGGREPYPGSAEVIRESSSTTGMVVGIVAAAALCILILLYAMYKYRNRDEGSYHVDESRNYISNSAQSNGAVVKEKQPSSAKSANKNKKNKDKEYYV

Results are given in words; binding and its absence hold for the method and conditions named. For some assays here: In cells and extracts the contact can be indirect. Some results given as binding are weak or reduced against the parent protein; the word gives no strength.

The target of experiment [1] is human synaptic acetylcholinesterase (hAChE-S) (human) (UniProt P22303). Briefly: co-IP; lysate of HEK293 cells co-transfected with neurexin-1β-His and hAChE; 1% Triton X-100, 0.5% sodium deoxycholate in PBS; anti-AChE or anti-His 3 h at 4°C; physostigmine 10 μM in all buffers; cells cultured without or with 10 μM physostigmine.
Experiment [2] deals with T1, human read-through acetylcholinesterase (hAChE-R) (human), P22303.
T1 chain: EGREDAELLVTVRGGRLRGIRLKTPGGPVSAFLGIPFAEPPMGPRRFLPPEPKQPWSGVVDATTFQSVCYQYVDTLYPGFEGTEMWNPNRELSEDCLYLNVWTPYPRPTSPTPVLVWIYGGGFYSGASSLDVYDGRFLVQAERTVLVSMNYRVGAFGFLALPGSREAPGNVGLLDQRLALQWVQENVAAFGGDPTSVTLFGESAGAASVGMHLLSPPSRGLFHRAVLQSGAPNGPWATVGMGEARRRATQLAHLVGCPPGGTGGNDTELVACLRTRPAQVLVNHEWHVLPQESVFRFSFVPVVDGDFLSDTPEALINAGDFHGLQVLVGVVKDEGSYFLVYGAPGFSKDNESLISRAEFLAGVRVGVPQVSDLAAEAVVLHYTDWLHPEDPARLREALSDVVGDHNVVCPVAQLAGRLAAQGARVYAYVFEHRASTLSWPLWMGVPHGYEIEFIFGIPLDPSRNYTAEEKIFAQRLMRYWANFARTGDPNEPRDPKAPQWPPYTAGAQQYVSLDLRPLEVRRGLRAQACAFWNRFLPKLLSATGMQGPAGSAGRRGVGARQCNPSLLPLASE
Briefly: immunoblot of a non-reducing gel; lysate or culture medium of transfected HEK293 cells on a 10% gel, loading buffer without reducing agent; anti-AChE. The settings on record: remark: other sources report otherwise.

For “neurexin-1β-3’-His (rat neurexin-1β containing alternatively spliced sequence 4) (from UniProt Q63373 47-468) (receptor)”, in experiment [1], the binding entry was “binds”.

B1: human read-through acetylcholinesterase (hAChE-R), P22303-4 32-603 (enzyme)
chain: T1 chain
modifications: here or on the partner: N-linked glycans (sites not given); N-linked glycans (sites not given)
Consider B1, for which, in experiment [2], the binding result is recorded as “no binding”.
